Earlier results in US20150160195A1, “HUMAN LIVER TUMOR CELL LINE AND METHOD OF AGENT SCREENING” (Industrial Technology Research Institute, priority 2013, published 2015).
Some entries share one result that the patent states for a list of compounds.

Test system: liver cancer
Conditions: traditional chemotherapy, liver cancer patients; cited from earlier work

COc1cccc2c1C(=O)c1c(O)c3c(c(O)c1C2=O)C[C@@](O)(C(=O)CO)C[C@@H]3O[C@H]1C[C@H](N)[C@H](O)[C@H](C)O1 [doxorubicin]
response rate of liver cancer: less than 20%
